# Percent effect of library compounds

From ChEMBL document CHEMBL3988442, “University of Dundee, Small-Polar-MMV Screening Library” (2021).

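Whole-cell growth test on Mycobacterium tuberculosis, read after 3 days in glucose-containing 7H9 medium; the read-out is not stated. Compounds at 50 µM. Higher reads as more growth inhibition (inferred: compounds with an IC50 in retests scored well above the rest). About 69,000 compounds were tested under these conditions; 1.1% (about 760) showed 50% or more at least once.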

Values are the deposited “Percent Effect”, in %. The record does not define 0% and 100%; most values in the screen are far below 50% and negative numbers occur (in some assays of this library far below -100). The compounds are a random part of those screened. Two or more numbers in one place are separate tests of the same structure; such repeats can differ widely.

| # | structure | percent effect |
|---|---|---|
| 1 | `CCC(C)N(Cc1cccnc1)C(=O)c1ncccc1O` (configuration not stated) | -2.114 and -3.546 |
| 2 | `CCOCCCNS(=O)(=O)c1ccc2c(c1)NC(=O)C(C)O2` (configuration not stated) | 8.144 |
| 3 | `Cc1ccc(CNC(=O)Nc2nncs2)cn1` | 24.57 |
| 4 | `NC(=O)C1CCN(C(=O)Cn2nc(-c3ccccc3)oc2=O)C1` (configuration not stated) | -4.523 |
| 5 | `[H][C@@]12CO[C@@H](CNC(=O)c3nccn3C)[C@]1([H])CCN(S(C)(=O)=O)C2` | -1.38 |
| 6 | `Cc1nc(-c2cnn(C)c2)nc2c1CN(C(=O)c1ccc[nH]1)CC2` | -41.03 and -2.008 |
| 7 | `CNC(=O)C1CCCN1C(=O)NCCCc1cccc(F)c1` (configuration not stated) | 2.021 |
| 8 | `Cc1noc(C)c1-c1cncc(C2CCCN2Cc2ccncc2)n1` (configuration not stated) | -8.769 |
| 9 | `CC(C)S(=O)(=O)NC(=O)c1cc(-c2cccc(Cl)c2)no1` | -18.63 |
| 10 | `CC(C)N(C)Cc1cncc2c1CCN(CC1CC1)C2.Cl.Cl.Cl` | -21.13 |
| 11 | `CC(=O)c1ccc(S(=O)(=O)N2CCOC(Cn3ccnc3)C2)cc1` (configuration not stated) | 8.301 |
| 12 | `O=C(O)C(F)(F)F.O=S(=O)(C1CC1)N1CCc2ncnc(N3CCCC3)c2CC1` | 6.454 |
| 13 | `CC(=O)NC1CCCN(C(=O)Nc2cccnc2-n2cccn2)C1` (configuration not stated) | -9.008 |
| 14 | `CN1CC=C(c2noc(CCC(=O)N3CCc4ccccc4C3)n2)CC1` | 28.03 |
| 15 | `CN1CCc2c(C#N)c(NCc3cccnc3)n3cnnc3c2C1.Cl` | -1.572 |
| 16 | `O=C(Nc1cn[nH]c1)c1ccc(O)nc1` | -9.598 |
| 17 | `Cc1cccc(CN2CCC3(CC2)NC(=O)C[C@H]3c2cnn(C)c2)n1.O=C(O)C(F)(F)F` | -2.633 |
| 18 | `CCCN1CCC(N(C)C(=O)c2cc(C)nc3cc(F)ccc23)CC1` | 4.372 and -4.988 |
| 19 | `CN(C(=O)Nc1ccncc1)C1CCN(c2ccc(Cl)cc2)CC1` | 28.35 |
| 20 | `COCc1cc(NCCCSc2nnc(C)s2)ncn1` | 12.99 |
| 21 | `COc1ccc(OCCC(=O)N2CCCC2Cn2cccn2)cc1` (configuration not stated) | 0.9696 |
| 22 | `Cc1nc(CN(Cc2cccs2)C2CCS(=O)(=O)C2)oc1C` (configuration not stated) | -1.64 |
| 23 | `Cc1nc(CN2CCCN(CCOc3cccc(C#N)c3)CC2)no1` | -23.83 |
| 24 | `[H][C@]12CC[C@@]3(N=C(CC)N(CC(C)C)C3=O)[C@@]1([H])CN(S(C)(=O)=O)C2` | -9.047 and -3.932 |
| 25 | `CC(=O)NC1CCCN(Cc2ccn(C)c(=O)c2)C1` (configuration not stated) | 4.943 |
| 26 | `O=C(NCC1CCOC1)c1csc(-c2ccc(F)cc2)n1` (configuration not stated) | 37.5 |
| 27 | `CCn1cncc1Cn1cccc(C(F)(F)F)c1=O` | 5.245 |
| 28 | `OCCNc1cc(N2CCC(n3cc(C4CCCC4)nn3)CC2)ncn1` | 9.609 |
| 29 | `Cc1cnn(C2CN(CC(O)COCc3ccc4c(c3)OCO4)C2)c1` (configuration not stated) | -3.896 |
| 30 | `Cc1nn(C)cc1Cn1c(=O)ccc2ccccc21` | 8.017 |
| 31 | `CO[C@H]1CN(C(=O)c2cn3cc(C)ccc3n2)CC[C@@]12CCCO2` | -5.72 |
| 32 | `COc1cccc(CNC(=O)c2cc(C)nc(N3CCCCC3)n2)c1` | 48.17 |
| 33 | `Cc1ccc(CN2CCn3cc(CNC(=O)c4cnn(C)c4)nc3C2)s1.O=C(O)C(F)(F)F` | 17.14 |
| 34 | `Cc1cc(C)n(-c2cncc(NCCNC(=O)c3cccnc3)n2)n1` | 6.453 |
| 35 | `Cc1cc(C)nc(N(C)CCN(C)C2CCCC2)n1` | -14.35 |
| 36 | `CCc1cc(C(=O)N2CCCC(Cc3ccc(NC)nn3)C2)on1` (configuration not stated) | -87.14 |
| 37 | `Cc1ccc2nc(C(=O)N3CC(n4nc(C)cc4C)C3)cn2c1` | -5.467 and -6.56 |
| 38 | `O=C(NC1CC1)c1ccc(SCc2cscn2)cc1` | -18.84 |
| 39 | `O=C1NC2(CCN(Cc3cccnc3)CC2)CC1c1ccncc1` (configuration not stated) | -12.81 |
| 40 | `Cc1noc(CN(C)CC2CCCN(CCc3ccc(Cl)cc3)C2)n1` (configuration not stated) | 13.21 |
| 41 | `CN(C)CCOCC1CN(C(=O)c2ccsc2)Cc2ccnn2C1.O=C(O)C(F)(F)F.O=C(O)C(F)(F)F` (configuration not stated) | 2.474 and -5.562 |
| 42 | `CN(CC(=O)N1CCCC1)C(=O)Cc1csc(-c2ncccn2)n1` | 27.12 |
| 43 | `O=C(c1ccc[nH]1)N1CCc2nnc(Cn3cccc3)n2CC1` | -4.715 |
| 44 | `CSCC(CCO)NC(=O)Nc1ccc(Br)cc1` (configuration not stated) | 1.965 |
| 45 | `Cn1nnc(NCc2ccc(-c3ccc(Cl)cc3)o2)n1` | 53.11 and 35.24 |
| 46 | `O=C(O)C(F)(F)F.O=C(O)C(F)(F)F.[H][C@]12CCC[C@@]1(COc1cccnc1)CN(C1CCOCC1)C2` | 9.958 |
| 47 | `Cc1nccc(-c2cccc(NCC(=O)N3CCCC(C)C3)c2)n1` (configuration not stated) | 5.386 |
| 48 | `CCNC(=O)[C@@H]1C[C@H](N)CN1Cc1ccc(Sc2ccc(C)cc2)o1` | 8.804 |
| 49 | `Cc1ccc(CC(=O)N2CCN(CC(C)O)CC2)cn1` (configuration not stated) | 3.111 |
| 50 | `CCN1CCOCC12CCN(C(=O)c1ccsc1)CC2.O=C(O)C(F)(F)F` | -2.259 and -3.115 |
| 51 | `CC(C)NC(=O)N1CCN(CC2CC2)CC2(CC(=O)N(C)C2)C1.O=C(O)C(F)(F)F` (configuration not stated) | 1.04 |
| 52 | `CN(C)c1ccc(C(=O)NCc2csc(Br)c2)cn1` | -18.98 |
| 53 | `Cc1ccccc1N1CC(c2nnc(N)s2)CC1=O` (configuration not stated) | -3.109 |
| 54 | `O=C(c1cccc(S(=O)(=O)NCCCn2cccn2)c1)N1CCOCC1` | -34.53 |
| 55 | `CCNC(=O)C(C)Oc1ccc(N(C)S(C)(=O)=O)cc1` (configuration not stated) | 4.389 |
| 56 | `COc1ccc(-c2csc(N)c2C#N)cc1OC` | -6.987 |
| 57 | `Cc1ccnn1CC(=O)N1CCCN(C2Cc3ccccc3C2)CC1` | 0.05494 and -4.623 |
| 58 | `Cc1cnn(C2CCCN(C(=O)CCNS(C)(=O)=O)C2)c1` (configuration not stated) | 2.32 and -6.37 |
| 59 | `CCOc1cc(C)nc(N2CCN(C(=O)c3csnn3)CC2)n1` | -34.42 and -2.906 |
| 60 | `COc1cc(F)c(C(=O)N2C[C@@H](CN(C)CCO)[C@@H](CO)C2)c(F)c1` | 17.88 |
| 61 | `[H][C@@]12CN(Cc3nccs3)C[C@H](C(=O)N3CCCC3)[C@]1([H])CCO2` | -46.36 |
| 62 | `CNC(=O)c1ccc(C(=O)N2CCCCC2Cn2cc(C)cn2)cn1` (configuration not stated) | -9.35 |
| 63 | `Cc1cc(C)n(CC2CCCN2C(=O)c2c[nH]c(=O)c(Cl)c2)n1` (configuration not stated) | 4.161 |
| 64 | `CN(C)CCCNCC1CCOC(C)(C)C1` (configuration not stated) | 12.52 |
| 65 | `O=C(O)COc1ccc(CN2CCCC(Cc3cccnc3)C2)cc1` (configuration not stated) | -4.434 |
| 66 | `CC(Nc1ncnc2sccc12)c1cnn(C)c1` (configuration not stated) | -11.56 |
| 67 | `NC(=O)CN1CCC(c2cccc(Oc3ccccc3)n2)CC1` | -33.32 |
| 68 | `CCn1ccnc1CN1CCC(=O)N(CC2CC2)C(C(C)C)C1` (configuration not stated) | -73.21 |
| 69 | `Cc1nc(CN2CCN(C(C)c3nc(C4CC4)no3)CC2)no1` (configuration not stated) | -4.835 |
| 70 | `CC(=O)N1CCN(CCNS(=O)(=O)c2ccc(C)c(F)c2)CC1` | -9.832 and -18.53 |
| 71 | `COc1c(CNCc2ccc(OCC(N)=O)cc2)c(C)nn1C` | -20.79 |
| 72 | `O=C(O)C(F)(F)F.[H][C@]12CCC[C@@]1(COCc1csc(C)n1)CN(Cc1nccs1)C2` | -11.9 |
| 73 | `CNC(=O)C1Cn2ccnc2C2(CCN(Cc3cccnc3)CC2)O1.O=C(O)C(F)(F)F.O=C(O)C(F)(F)F.O=C(O)C(F)(F)F` (configuration not stated) | -21.14 |
| 74 | `COc1ccccc1S(=O)(=O)N1CC(N(C)C)Cc2ccccc21` (configuration not stated) | -32.27 |
| 75 | `COC(=O)C1CCN(C(=O)c2nnc3ccc(Cl)cc3n2)CC1` | 39.38 |
| 76 | `O=C(O)CCc1ccc(S(=O)(=O)Nc2cnn(CC3CC3)c2)cc1` | -1.156 and -21.82 |
| 77 | `Cc1cnn(CC2CCCN2Cc2cn3ccsc3n2)c1` (configuration not stated) | 28.97 |
| 78 | `O=C(Nc1ccnc2ccnn12)c1ccc(NC2CC2)nc1` | 17 |

Some entries from above, unchanged:

CC(=O)NC1CCCN(C(=O)Nc2cccnc2-n2cccn2)C1 (configuration not stated) gave -9.008%.
CN(C)CCCNCC1CCOC(C)(C)C1 (configuration not stated) gave 12.52%.
COCc1cc(NCCCSc2nnc(C)s2)ncn1 gave 12.99%.
O=C(O)C(F)(F)F.O=C(O)C(F)(F)F.[H][C@]12CCC[C@@]1(COc1cccnc1)CN(C1CCOCC1)C2 gave 9.958%.
O=C(O)C(F)(F)F.O=S(=O)(C1CC1)N1CCc2ncnc(N3CCCC3)c2CC1 gave 6.454%.